Assay results: patent US8039585B2, “Therapeutic administration of the scrambled anti-angiogenic peptide C16Y” (The United States of America as represented by the …, priority 2004, dated 2011)
For some assays here: At least one peptide structure holds a part that was inferred or is arguable (an end, a ring closure or a residue). Some results were stated once for a whole list of compounds, not compound by compound. Ends that are not written are not given here.

Experiments:
[1] = test system: human umbilical vein endothelial cells (HUVECs); assay: Endothelial cell adhesion to peptide-coated plates; format: cell-based; settings: 0-5 μg coated, 1.5 hours; for Amount of coated peptide at which cells attached: 37° C.
Method: FIG. 1: Endothelial cell adhesion by C16 and scrambled C16 peptides. 96-well plates were coated with either laminin-1 (0.5 μg), C16 peptide (0-5 μg), or scrambled C16 peptide (0-5 μg). Each well was rinsed with PBS, blocked with BSA, rinsed again with PBS, and then treated with 0.1 ml of RPMI containing 35,000 human umbilical vein endothelial cells (HUVECs) for 1.5 hours at 37° C. Unbound cells were decanted, and attached cells were stained with crystal violet and quantified by measuring their absorbance at 600 nm. Cells adhered to C16, C16S, and C16Y peptides. More cells adhered to C16Y than to any other peptide at all concentrations tested. Bars represent ±SD.
Endothelial cell adhesion assays were performed on 96-well plates coated overnight with either laminin-1 (0.5 μg) or synthetic laminin peptides C16, C16S, C16J, C16L, or C16Y (0-5 μg) as described previously (Malinda 1999). Wells were rinsed with PBS, blocked with 2 mg/ml of BSA, and rinsed again with PBS. Cell adhesion was performed using 0.1 ml of RPMI 1640 containing 35,000 HUVECs. After a 1.5-hour incubation period at 37° C., unbound cells were decanted and attached cells were fixed and stained with 20% methanol/0.2% crystal violet. Dishes were extensively rinsed, and bound dye was solubilized in 2% SDS and quantitated at 600 nm. Assays were done in triplicate at least three times.

[2] = test system: endothelial cell attachment to laminin-1; assay: Competition assay: block of endothelial cell adhesion to laminin-1; format: cell-based, human; settings: competing peptide 50 μg/ml
Method: FIG. 2: Ability of C16 and scrambled C16 peptides to block laminin-1 endothelial cell adhesion. 96-well plates were coated with laminin-1 (0.5 μg) in the presence of competing C16 or scrambled C16 peptides (0-100 μg/ml). Each wells was treated with 0.1 ml of RPMI containing 35,000 human umbilical vein endothelial cells (HUVECs) for 1.5 hours at 37° C. Unbound cells were decanted, and attached cells were stained with crystal violet and quantified by measuring their absorbance at 600 nm. […] Bars represent ±SD.
Competition experiments were done using 96-well plates coated with laminin-1 (0.5 μg) in the presence of 0-100 μg/ml of competing C16, C16S, C16J, C16L, or C16Y synthetic laminin peptide as specified. Control wells were coated with BSA only. Wells were contacted with 0.1 ml of RPMI 1640 containing 35,000 HUVECs. After a 1.5-hour incubation at 37° C., unbound cells were decanted and attached cells were fixed and stained with 20% methanol/0.2% crystal violet. Dishes were extensively rinsed, and bound dye was solubilized in 2% SDS and quantitated at 600 nm. Assays were done in triplicate at least three times.

HUVECs [3] = settings: shown previously (Ponce 2001); cited from earlier work
[4] = test system: C16-induced angiogenesis in the chick CAM; assay: CAM assay, C16-induced angiogenesis; format: in vivo
Method: FIG. 4: Inhibition of C16-induced angiogenesis by C16Y. 0.5 μg of angiogenic stimulator (C16 peptide) and varying concentrations of either C16S or C16Y peptides were applied to 10-day-old embryonated eggs in 5 μl of water. After 3 days, microphotographs were taken of the eggs to determine angiogenesis levels. Negative control eggs were treated with water only (panel a), while positive control eggs were treated with bFGF only (not shown). As expected, C16 peptide administered alone stimulated angiogenesis (panel d). […] When the amount of inhibitor peptide was lowered to 0.05 μg, C16Y peptide continued to inhibit angiogenesis (panel f), while C16S peptide had no effect (panel c).
The CAM assay was performed using 10-day-old embryonated eggs (CBT, Charlestown, Md.) as described previously (Gho 1999). On embryonal day 3, approximately 4 ml of ovalbumin was removed from each egg. After opening windows on embryonal day 10, the angiogenic stimulus (C16) and test competitor peptides in 5 μl of distilled water were applied to the CAM after drying on 13-mm diameter quartered plastic coverslips (Thermanox; Nalge, NUNC International, Naperville, Ill.). Three days later, the eggs were scored for a positive response and photographed. The positive control was bFGF, and the negative control was the vehicle water. Experiments were repeated twice using a minimum of 11 eggs for each data point.

[5] = test system: bFGF-induced angiogenesis; assay: CAM assay, bFGF-induced angiogenesis; format: in vivo, chick; settings: 50 ng bFGF, 3 days
Method: FIG. 5: Inhibition of bFGF-induced angiogenesis by C16Y. 50 ng of angiogenic stimulator (bFGF) and varying concentrations of either C16S or C16Y peptides were applied to 10-day old embryonated eggs in 5 μl of water, and CAMs were analyzed for the presence or absence of angiogenesis.
50 ng of angiogenic stimulator (bFGF) and varying concentrations of either C16S or C16Y peptides were applied to 10-day old embryonated eggs in 5 μl of water, and CAMs were analyzed after 3 days for the presence or absence of angiogenesis.

[6] = test system: choroidal neovascularization; assay: Laser-induced choroidal neovascularization in vivo; design: species or system C57/BL6 mice; settings: 1 mg i.p. daily, 14 days
MDA-MB 231 cells = assay: Tumor cell proliferation assay (Cell Titer 96 Aqueous); format: cell-based; settings: 100 μg/ml, 2-72 hours
Method: A proliferation assay was performed to determine whether the tumor inhibition discussed in Example 6 was the result of angiogenesis inhibition or some effect on cell proliferation. Proliferation of MDA-MB 231 cells was quantified using a Cell Titer 96 Aqueous Cell Proliferation assay kit (Promega, Madison, Wis.). Cells were plated on four 96-well dishes at 5×10^3 cells/well and cultured in AIM-V serum-free medium (Life Technologies, Inc., Gaithersburg, Md.). After 1 hour, peptides C16 and C16Y were added at a final concentration of 100 μg/ml. A separate dish was used to quantitate proliferation at 2, 24, 48, and 72 hours by reading absorbance at 490 nm on an Emax plate reader. Each experiment was repeated in triplicate two times.

HUVECs [7] = assay: Endothelial cell tube-forming assay on Matrigel; format: cell-based, human; design: key to Disruption of tube formation / Activity (tube formation, truncated C16Y peptides): +: tubes slightly affected; ++: tubes moderately affected; +++: tubes disrupted; ++++: tubes completely disrupted; −: tubes resemble control; settings: for Disruption of tube formation: 16 hours
Method: FIG. 3: Disruption of endothelial cell tube formation by C16Y peptide. 48-well plates were coated with 200 μl of Matrigel per well. Each well was treated with RPMI containing 24,000 human umbilical vein endothelial cells (HUVECS) and 100 mg/L endothelial cell growth factor in the presence of 10-75 μg/ml of C16 or scrambled C16 peptide for 16 hours. Control wells contained medium only. Cells were fixed and stained, and tube formation was scored by a blinded observer.
Tube-forming assays were performed as described previously (Ponce 2001). 48-well plates were coated with 200 μl/well of Matrigel (Gho 2001; Kubota 1988), a basement membrane matrix. HUVECs (24,000 cells/well) were plated in RPMI 1640 containing 10% bovine calf serum, defined and supplemented (HyClone Laboratories, Inc., Logan, Utah), along with 100 mg/liter of endothelial cell growth factor (Collaborative Biomedical). C16 or scrambled C16 peptides were added at concentrations ranging from 10-75 μg/ml. Control wells contained medium only. After 16 hours, cells were fixed and stained with Diff-Quick fixative (methanol) and solution II (6.25% (w/v) each of azure A and methylene blue) (Dade A G, Dudingen, Switzerland), and tube formation was scored by a blinded observer. Each peptide was tested at least in triplicate, and the assays were repeated a minimum of three times.
Tube formation assays were repeated using truncated versions of the C16Y peptide to determine the minimal active sequence of the peptide. The carboxyl end of C16Y was not necessary for activity, whereas the amino terminal aspartic acid was required. The minimal active sequence for the C16Y peptide is shown in SEQ ID NO: 2. Each of the peptides containing at least this 8 amino acid sequence (SEQ ID NOs: 1-5) inhibited tube formation.

[8] = test system: MDA-MB 231 breast tumor cells; format: in vivo, chick; settings: P≦0.027
Method: FIG. 6: Inhibition of CAM tumor growth by C16Y. MDA-MB 231 breast tumor cells were mixed with C16 or C16Y peptides (at either 50 or 100 μg/ml), then mixed with 1:1 with neutralized collagen I solution. The collagen I gel was overlayed with the CAM of a 7-day-old embryo for 7 days, after which the membrane was fixed and tumor cells were removed and weighed. In the absence of either peptide, average tumor weight was 5.40±0.59 mg. […] C16Y peptide inhibited tumor growth by approximately 40% at both concentrations tested. Bars represent ±SD.
The effect of C16Y on tumor growth in vivo was analyzed using the CAM assay (Gho 2001). MDA-MB 231 breast tumor cells (a gift of Dan Welch, Pennsylvania State University, University Park, Pa.) (1×10^6 cells/0.1 ml) in RPMI 1640 were mixed with 0, 50, or 100 μg/ml of C16 or C16Y, and then mixed 1:1 with a neutralized collagen I solution (4.6 mg/ml collagen type 1). This collagen I gel was overlayed with the CAM of a 7-day-old embryo. After a 7 day incubation, the membrane was fixed and tumor cells were removed and weighed. This experiment was repeated twice, with each data point tested in at least six replicates.

[9] = test system: MDA-MB 231 breast cancer cells; assay: Primary tumor growth in nude mice (s.c. MDA-MB 231); format: in vivo
Method: FIG. 7: Inhibition of primary tumor growth by C16Y. MDA-MB 231 cancer cells were injected subcutaneously (s.c.) into nude mice and the tumors were allowed to grow until they reached 200-300 mm^3. Mice were then treated daily for 7-10 days with C16 (1 mg/day) or C16Y peptides (0.2, 0.5, or 1 mg/day) by intraperitoneal (i.p.) injection. Control mice were injected with water only. Tumor size was measured at 0, 3, 6, and 9 days after peptide injections began. A. Mice were treated with 1 mg/day of either C16 or C16Y peptide for 10 days. […] B. Mice were treated with C16Y peptide at varying concentrations for 7 days. C16Y decreased tumor size at all concentrations tested during the 7 days it was administered. Tumor growth resumed when administration of the C16Y peptide was halted, with tumor size increasing more rapidly in mice treated with lower dosages of C16Y. Bars represent ±SD.
MDA-MB 231 breast cancer cells (5×10^5 cells) mixed with Matrigel (1:4) were injected subcutaneously (s.c.) into nude mice. Within 7-9 days after injection, breast carcinoma tumors reached a volume of 200-300 mm^3. Mice were then administered C16 or C16Y peptide on a daily basis by intraperitoneal (i.p.) injection. Control mice were injected daily with vehicle only (water). Tumor growth was monitored with a caliper, with measurements being taken on days 0, 3, 6, and 9 after the first peptide injection. Tumor volume was determined using the formula width^2×length×0.52. At the end of the experiments, tumors were excised, weighed, and fixed with formalin. Vessel number was determined by staining sections with a CD-31 antibody (Nomizu 2001) and counting 6 fields per section per mouse (n=2 section/mouse; total 3 mice).

[10] = 0.5 μg C16 + 0.05 μg inhibitor peptide

Q: With “C16S: scrambled peptide of C16, created as a negative control, with antagonist activity (KAFDITYVRLKF; Scrambled version of C16 peptide) [Peptide C16S, reference compound]” as the substance, how does the “Amount of coated peptide at which cells attached” value [1] read?
A: > 0.1 µg

Q: And the “Inhibition of endothelial cell attachment to laminin-1” value (“Inhibition … to laminin-1” for short) [2]?
A: < 40%

Q: And the “Doses active in the endothelial cell tube formation assay” value (HUVECs [3])?
A: greater than 50 μg/ml

Q: Which CAMs weakly angiogenic [4, 10] does the source give for “DFKLFAVYIKYR-NH2 [Peptide C16Y, DFKLFAVYIKYR]” here?
A: 55%

Q: What about the “Inhibitory effect on angiogenesis” value [4, 10] of the same substance?
A: continued to function as an angiogenesis inhibitor

Q: What about the Reduction in angiogenesis ([4]; 0.5 μg C16 + 0.1 μg inhibitor peptide) of the same substance?
A: 75%

Q: And the Reduction in angiogenesis ([4]; 0.5 μg C16 + 0.2 μg inhibitor peptide)?
A: 88%

Q: And the “Level of inhibition greater than that of C16S” value ([4]; at higher concentrations)?
A: roughly 25%

Q: What about the “Ability to inhibit angiogenesis relative to C16S” value ([4]; in vivo) of the same substance?
A: 5-10 fold

Q: What about the “Angiogenesis with peptide administered alone” value ([4]; peptide alone (C16: 0.5 μg)) of the same substance?
A: neither C16Y (FIG. 4, panel e) nor C16S (data not shown) administered alone stimulated angiogenesis

Q: What about the “Lowest amount exhibiting inhibition of angiogenesis” value [5] of the same substance?
A: 0.05 µg

Q: What about the “Endothelial cell adhesion to coated peptide” value [1] of the same substance?
A: more cells adhered to it than to any other peptide at all of the amounts tested

Q: And the “Average area of neovascularization” value [6]?
A: approximately 20,000 pixels

Q: And the “Choroidal neovascularization” value [6]?
A: statistically significant decrease in CN

Q: And the “Effect on MDA-MB 231 cell proliferation” value (MDA-MB 231 cells)?
A: Neither C16 nor C16Y altered MDA-MB 231 cell proliferation

Q: And the “Inhibition … to laminin-1” value [2]?
A: > 70%

Q: And the “Effect on endothelial tube formation” value (HUVECs [7])?
A: strongly disrupted tube formation at all of the doses tested

Q: And the “Dose at which tube formation is disrupted (lowest active)” value (HUVECs [7]; 10-75 μg/ml tested)?
A: 10 µg/mL

Q: And the “Disruption of tube formation” value (HUVECs [7]; peptide concentration 10 μg/ml)?
A: ++

Q: And the “Disruption of tube formation” value (HUVECs [7]; peptide concentration 25 μg/ml)?
A: +++

Q: What about the “Disruption of tube formation” value (HUVECs [7]; peptide concentration 50 μg/ml) of the same substance?
A: ++++

Q: And the “Disruption of tube formation” value (HUVECs [7]; peptide concentration 75 μg/ml)?
A: ++++

Q: And the “Activity (tube formation, truncated C16Y peptides)” value (HUVECs [7]; truncated versions of C16Y, concentration not given)?
A: ++

Q: And the “Vessels observed in tumors” value [8]?
A: 5.1±0.16

Q: And the “Time to approach control tumor volumes after treatment stopped” value ([9]; 0.2 mg dose, stopped on day 7)?
A: ≤ 3 days

Q: What about the “Reduction of tumor size” value ([9]; 1 mg/day i.p., 7 days) of the same substance?
A: approximately 33%

Q: What about the “Tumor growth” value ([9]; 1 mg/day i.p., after 7 days) of the same substance?
A: tumor growth was significantly inhibited

Q: And the “Time to reach initial tumor size after treatment stopped” value ([9]; 1 mg/day, stopped on day 7)?
A: approximately 6 days

Q: And the “Tumor size over administration period” value ([9]; 0.2, 0.5 or 1 mg/day i.p., 7 days)?
A: reduced tumor size

Q: With “KAFDITYVRLKF [Peptide C16, angiogenic peptide from the γ1 chain of laminin-1]” as the substance, how does the “Amount of coated peptide at which cells attached” value [1] read?
A: > 0.1 µg

Q: And the “Inhibition … to laminin-1” value [2]?
A: < 40%

Q: What about the “Doses active in the endothelial cell tube formation assay” value (HUVECs [3]) of the same substance?
A: greater than 50 μg/ml
